# Results are given in words; binding and its absence hold for the method and conditions named. In cells and extracts the contact can be indirect. Some entries that bind do so weakly or less than the wild type. For part of these data: Sequences can lack the tags named with a protein.
# Protein sequences, listed by entry. Tags and fused reporters are not part of them.
# UniProt P01106: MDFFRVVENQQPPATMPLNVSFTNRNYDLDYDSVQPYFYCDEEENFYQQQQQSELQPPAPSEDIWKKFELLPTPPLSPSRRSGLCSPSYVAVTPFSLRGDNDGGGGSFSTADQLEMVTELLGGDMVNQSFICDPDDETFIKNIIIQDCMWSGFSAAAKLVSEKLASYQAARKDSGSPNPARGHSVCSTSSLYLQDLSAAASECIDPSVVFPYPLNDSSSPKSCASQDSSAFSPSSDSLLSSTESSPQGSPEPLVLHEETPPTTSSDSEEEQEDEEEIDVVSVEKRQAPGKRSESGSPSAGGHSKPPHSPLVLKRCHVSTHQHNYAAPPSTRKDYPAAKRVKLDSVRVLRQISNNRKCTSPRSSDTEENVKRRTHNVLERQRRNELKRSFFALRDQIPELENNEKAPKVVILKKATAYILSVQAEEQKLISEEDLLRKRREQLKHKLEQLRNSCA
# T1: Flag-CTCF (UniProt P49711)
# T1 sequence: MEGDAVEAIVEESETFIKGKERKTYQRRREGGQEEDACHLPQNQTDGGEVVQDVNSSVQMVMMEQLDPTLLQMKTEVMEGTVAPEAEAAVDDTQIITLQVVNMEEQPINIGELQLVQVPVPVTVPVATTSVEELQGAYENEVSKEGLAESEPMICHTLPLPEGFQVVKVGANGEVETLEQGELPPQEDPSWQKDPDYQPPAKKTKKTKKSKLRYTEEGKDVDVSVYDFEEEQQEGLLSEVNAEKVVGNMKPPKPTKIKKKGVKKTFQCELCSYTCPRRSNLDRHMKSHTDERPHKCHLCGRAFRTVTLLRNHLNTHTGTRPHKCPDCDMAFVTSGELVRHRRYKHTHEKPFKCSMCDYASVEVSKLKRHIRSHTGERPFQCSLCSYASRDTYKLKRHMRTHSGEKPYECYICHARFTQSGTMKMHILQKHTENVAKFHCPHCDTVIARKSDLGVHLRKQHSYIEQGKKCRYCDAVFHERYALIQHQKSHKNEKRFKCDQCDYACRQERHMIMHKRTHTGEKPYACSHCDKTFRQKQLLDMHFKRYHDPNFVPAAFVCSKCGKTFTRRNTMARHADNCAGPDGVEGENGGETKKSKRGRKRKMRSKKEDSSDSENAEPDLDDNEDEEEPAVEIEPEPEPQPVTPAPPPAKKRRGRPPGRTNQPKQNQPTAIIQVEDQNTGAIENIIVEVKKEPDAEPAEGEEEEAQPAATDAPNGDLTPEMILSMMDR
# T2: CTCF (human (endogenous in 22Rv1)) (UniProt P49711)
# T2 sequence: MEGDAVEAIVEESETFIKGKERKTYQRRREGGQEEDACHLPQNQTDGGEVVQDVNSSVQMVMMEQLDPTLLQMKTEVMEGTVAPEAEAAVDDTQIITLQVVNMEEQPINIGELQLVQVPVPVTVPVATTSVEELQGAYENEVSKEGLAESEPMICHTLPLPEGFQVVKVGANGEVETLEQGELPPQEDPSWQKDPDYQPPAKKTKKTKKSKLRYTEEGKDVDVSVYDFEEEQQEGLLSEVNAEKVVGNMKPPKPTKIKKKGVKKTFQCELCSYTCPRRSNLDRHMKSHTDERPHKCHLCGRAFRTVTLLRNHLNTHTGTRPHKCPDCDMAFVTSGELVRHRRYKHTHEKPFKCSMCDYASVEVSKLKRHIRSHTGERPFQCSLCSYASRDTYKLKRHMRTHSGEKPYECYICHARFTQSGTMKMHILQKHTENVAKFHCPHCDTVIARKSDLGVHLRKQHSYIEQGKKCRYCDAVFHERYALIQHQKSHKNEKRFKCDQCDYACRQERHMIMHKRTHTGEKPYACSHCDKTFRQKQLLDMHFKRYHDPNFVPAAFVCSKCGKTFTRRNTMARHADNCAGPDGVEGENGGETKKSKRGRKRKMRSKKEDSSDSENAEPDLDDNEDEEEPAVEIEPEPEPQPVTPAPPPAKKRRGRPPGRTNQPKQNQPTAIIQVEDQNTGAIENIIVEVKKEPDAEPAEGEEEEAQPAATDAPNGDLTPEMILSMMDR
# Key:
# Flag-CTCF = biological target: T1, Flag-CTCF; test: co-IP; 22Rv1 cells expressing GFP-MYC and Flag-CTCF; anti-Flag beads; input and IPed proteins blotted with anti-GFP and anti-Flag
# [1] = biological target: T2, CTCF (human (endogenous in 22Rv1)); test: co-IP; lysate of V16A cells; endogenous CTCF and MYC (Fig. S5e)
# [2] = biological target: T2, CTCF (human (endogenous in 22Rv1)); test: proximity ligation; Duolink in situ PLA in fixed, permeabilised 22Rv1 cells; mouse anti-MYC (9E10) and rabbit anti-CTCF (D31H2); confocal microscopy, red spots
# [3] = biological target: T2, CTCF (human (endogenous in 22Rv1)); test: co-IP; lysates of control and MYC-overexpressing 22Rv1 cells; anti-CTCF or anti-MYC antibody on protein A/G beads, rabbit IgG isotype control; IP binding buffer 5 mM Tris-HCl pH 7.4, 150 mM NaCl, 1 mM EDTA, 1% Triton X-100, 5% glycerol; overnight at 4 °C; Western blot
# GST-MYC = GST-MYC (UniProt P01106); test: pull-down; GST or GST-MYC immobilised on glutathione beads; incubated with Flag-CTCF expressed in 22Rv1 cells (lysate) for 4 h at 4 °C; washed five times with cold PBS; Western blot with anti-Flag or anti-MAX; only the target purified
molecule,measurement,setting,value
GFP-MYC (from UniProt P01106 1-454),binding,Flag-CTCF,binds
MYC (from UniProt P01106 1-454),binding,[1],binds
same,binding,[2],binds
same,binding,[3],binds
MYC overexpressed from pLVX-MYC (from UniProt P01106 1-454),binding,[3],binds
"Flag-CTCF (protein, UniProt P49711 1-727) MEGDAVEAIVEESETFIKGKERKTYQRRREGGQEEDACHLPQNQTDGGEVVQDVNSSVQMVMMEQLDPTLLQMKTEVMEGTVAPEAEAAVDDTQIITLQVVNMEEQPINIGELQLVQVPVPVTVPVATTSVEELQGAYENEVSKEGLAESEPMICHTLPLPEGFQVVKVGANGEVETLEQGELPPQEDPSWQKDPDYQPPAKKTKKTKKSKLRYTEEGKDVDVSVYDFEEEQQEGLLSEVNAEKVVGNMKPPKPTKIKKKGVKKTFQCELCSYTCPRRSNLDRHMKSHTDERPHKCHLCGRAFRTVTLLRNHLNTHTGTRPHKCPDCDMAFVTSGELVRHRRYKHTHEKPFKCSMCDYASVEVSKLKRHIRSHTGERPFQCSLCSYASRDTYKLKRHMRTHSGEKPYECYICHARFTQSGTMKMHILQKHTENVAKFHCPHCDTVIARKSDLGVHLRKQHSYIEQGKKCRYCDAVFHERYALIQHQKSHKNEKRFKCDQCDYACRQERHMIMHKRTHTGEKPYACSHCDKTFRQKQLLDMHFKRYHDPNFVPAAFVCSKCGKTFTRRNTMARHADNCAGPDGVEGENGGETKKSKRGRKRKMRSKKEDSSDSENAEPDLDDNEDEEEPAVEIEPEPEPQPVTPAPPPAKKRRGRPPGRTNQPKQNQPTAIIQVEDQNTGAIENIIVEVKKEPDAEPAEGEEEEAQPAATDAPNGDLTPEMILSMMDR",binding,GST-MYC,binds

# Source: PMC10063626
